24 targets from the supplement of paper PMC10849652 can be followed below.

The chains behind the UniProt entries cited, without tags or fusion partners. Where a name states a change or a piece, a line headed by the entry shows the natural chain unless it says otherwise.
UniProt O43837: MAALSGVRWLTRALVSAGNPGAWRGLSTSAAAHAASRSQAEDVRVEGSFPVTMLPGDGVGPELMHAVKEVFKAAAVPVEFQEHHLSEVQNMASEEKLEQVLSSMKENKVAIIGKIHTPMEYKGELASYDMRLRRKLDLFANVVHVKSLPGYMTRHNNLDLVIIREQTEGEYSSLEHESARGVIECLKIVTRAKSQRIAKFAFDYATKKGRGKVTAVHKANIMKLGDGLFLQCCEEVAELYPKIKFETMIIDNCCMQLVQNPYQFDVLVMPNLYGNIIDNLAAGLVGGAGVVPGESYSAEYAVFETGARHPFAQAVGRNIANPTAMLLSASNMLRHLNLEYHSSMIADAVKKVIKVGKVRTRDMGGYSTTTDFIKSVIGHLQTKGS
UniProt Q9NV31: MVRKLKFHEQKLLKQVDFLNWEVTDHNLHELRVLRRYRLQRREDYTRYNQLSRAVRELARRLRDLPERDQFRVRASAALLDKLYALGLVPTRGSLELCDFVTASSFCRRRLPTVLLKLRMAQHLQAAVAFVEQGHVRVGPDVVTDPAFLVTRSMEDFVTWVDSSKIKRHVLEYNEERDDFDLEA
UniProt P80217: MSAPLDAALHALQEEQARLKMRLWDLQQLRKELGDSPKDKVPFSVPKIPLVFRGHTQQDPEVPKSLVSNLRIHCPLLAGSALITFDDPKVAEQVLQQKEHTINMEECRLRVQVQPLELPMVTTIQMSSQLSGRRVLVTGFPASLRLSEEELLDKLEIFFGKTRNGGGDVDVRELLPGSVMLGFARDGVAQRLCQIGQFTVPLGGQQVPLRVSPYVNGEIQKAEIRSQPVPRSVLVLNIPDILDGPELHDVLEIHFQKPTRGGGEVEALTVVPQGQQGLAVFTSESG
UniProt P19823: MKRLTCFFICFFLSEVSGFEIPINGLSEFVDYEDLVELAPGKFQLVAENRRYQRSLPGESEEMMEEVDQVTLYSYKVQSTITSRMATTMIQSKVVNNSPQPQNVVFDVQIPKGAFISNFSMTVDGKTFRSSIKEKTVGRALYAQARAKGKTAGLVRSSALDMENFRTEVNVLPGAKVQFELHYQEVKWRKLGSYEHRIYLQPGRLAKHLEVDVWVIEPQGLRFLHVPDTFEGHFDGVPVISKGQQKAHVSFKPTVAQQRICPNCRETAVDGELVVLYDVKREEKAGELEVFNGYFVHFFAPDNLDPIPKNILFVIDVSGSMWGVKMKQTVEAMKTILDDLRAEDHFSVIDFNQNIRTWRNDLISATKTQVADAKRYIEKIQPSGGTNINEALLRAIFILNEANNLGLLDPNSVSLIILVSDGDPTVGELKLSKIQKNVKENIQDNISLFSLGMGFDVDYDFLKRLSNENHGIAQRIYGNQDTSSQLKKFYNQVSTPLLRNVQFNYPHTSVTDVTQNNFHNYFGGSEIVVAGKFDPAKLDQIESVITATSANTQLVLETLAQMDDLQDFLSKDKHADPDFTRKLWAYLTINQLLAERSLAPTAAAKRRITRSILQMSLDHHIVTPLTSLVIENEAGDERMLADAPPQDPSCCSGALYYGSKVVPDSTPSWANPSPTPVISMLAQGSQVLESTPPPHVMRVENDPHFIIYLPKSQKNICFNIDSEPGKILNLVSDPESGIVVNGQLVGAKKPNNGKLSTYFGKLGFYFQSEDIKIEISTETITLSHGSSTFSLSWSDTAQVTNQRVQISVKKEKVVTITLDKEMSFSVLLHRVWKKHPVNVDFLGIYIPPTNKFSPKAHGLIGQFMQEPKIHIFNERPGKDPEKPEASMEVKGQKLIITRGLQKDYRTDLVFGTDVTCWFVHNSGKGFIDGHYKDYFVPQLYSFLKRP
UniProt Q14116, whole entry, looked up: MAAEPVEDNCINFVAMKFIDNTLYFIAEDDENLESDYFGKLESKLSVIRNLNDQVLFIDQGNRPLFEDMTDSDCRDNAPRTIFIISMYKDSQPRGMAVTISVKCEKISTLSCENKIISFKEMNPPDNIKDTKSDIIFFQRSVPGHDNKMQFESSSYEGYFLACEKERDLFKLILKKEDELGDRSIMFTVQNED
UniProt O75054: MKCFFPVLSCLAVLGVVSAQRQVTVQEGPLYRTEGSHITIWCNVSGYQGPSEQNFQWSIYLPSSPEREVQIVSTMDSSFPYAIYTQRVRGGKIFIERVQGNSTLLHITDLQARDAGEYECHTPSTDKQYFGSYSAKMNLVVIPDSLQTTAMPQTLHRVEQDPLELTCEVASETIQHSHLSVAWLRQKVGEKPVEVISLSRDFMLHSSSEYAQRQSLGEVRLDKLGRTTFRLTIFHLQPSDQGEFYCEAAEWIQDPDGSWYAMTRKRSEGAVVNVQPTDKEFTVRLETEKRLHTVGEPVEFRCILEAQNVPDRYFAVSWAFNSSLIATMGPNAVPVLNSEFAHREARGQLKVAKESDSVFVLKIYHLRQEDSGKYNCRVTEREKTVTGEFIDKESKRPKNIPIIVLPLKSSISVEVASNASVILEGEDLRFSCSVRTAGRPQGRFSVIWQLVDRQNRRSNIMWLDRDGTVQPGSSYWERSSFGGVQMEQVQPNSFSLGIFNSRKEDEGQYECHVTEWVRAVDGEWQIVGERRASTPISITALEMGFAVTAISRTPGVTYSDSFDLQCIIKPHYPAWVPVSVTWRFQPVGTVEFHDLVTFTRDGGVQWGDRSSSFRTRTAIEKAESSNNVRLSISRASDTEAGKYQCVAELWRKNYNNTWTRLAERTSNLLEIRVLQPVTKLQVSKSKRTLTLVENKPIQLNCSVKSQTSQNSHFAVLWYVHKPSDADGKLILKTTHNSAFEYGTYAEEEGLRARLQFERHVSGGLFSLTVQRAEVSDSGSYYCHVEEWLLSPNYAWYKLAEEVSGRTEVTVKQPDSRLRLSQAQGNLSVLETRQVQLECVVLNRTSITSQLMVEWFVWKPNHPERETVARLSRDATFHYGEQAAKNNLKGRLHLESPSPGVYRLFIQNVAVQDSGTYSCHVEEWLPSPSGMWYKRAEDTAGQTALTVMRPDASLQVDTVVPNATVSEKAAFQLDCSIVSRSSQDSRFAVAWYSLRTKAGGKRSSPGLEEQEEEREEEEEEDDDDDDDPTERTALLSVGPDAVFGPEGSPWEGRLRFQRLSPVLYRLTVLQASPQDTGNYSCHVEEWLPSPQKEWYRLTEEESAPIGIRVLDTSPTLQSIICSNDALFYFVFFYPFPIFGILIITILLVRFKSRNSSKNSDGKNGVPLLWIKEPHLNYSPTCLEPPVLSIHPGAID
UniProt Q8N201, whole entry, looked up: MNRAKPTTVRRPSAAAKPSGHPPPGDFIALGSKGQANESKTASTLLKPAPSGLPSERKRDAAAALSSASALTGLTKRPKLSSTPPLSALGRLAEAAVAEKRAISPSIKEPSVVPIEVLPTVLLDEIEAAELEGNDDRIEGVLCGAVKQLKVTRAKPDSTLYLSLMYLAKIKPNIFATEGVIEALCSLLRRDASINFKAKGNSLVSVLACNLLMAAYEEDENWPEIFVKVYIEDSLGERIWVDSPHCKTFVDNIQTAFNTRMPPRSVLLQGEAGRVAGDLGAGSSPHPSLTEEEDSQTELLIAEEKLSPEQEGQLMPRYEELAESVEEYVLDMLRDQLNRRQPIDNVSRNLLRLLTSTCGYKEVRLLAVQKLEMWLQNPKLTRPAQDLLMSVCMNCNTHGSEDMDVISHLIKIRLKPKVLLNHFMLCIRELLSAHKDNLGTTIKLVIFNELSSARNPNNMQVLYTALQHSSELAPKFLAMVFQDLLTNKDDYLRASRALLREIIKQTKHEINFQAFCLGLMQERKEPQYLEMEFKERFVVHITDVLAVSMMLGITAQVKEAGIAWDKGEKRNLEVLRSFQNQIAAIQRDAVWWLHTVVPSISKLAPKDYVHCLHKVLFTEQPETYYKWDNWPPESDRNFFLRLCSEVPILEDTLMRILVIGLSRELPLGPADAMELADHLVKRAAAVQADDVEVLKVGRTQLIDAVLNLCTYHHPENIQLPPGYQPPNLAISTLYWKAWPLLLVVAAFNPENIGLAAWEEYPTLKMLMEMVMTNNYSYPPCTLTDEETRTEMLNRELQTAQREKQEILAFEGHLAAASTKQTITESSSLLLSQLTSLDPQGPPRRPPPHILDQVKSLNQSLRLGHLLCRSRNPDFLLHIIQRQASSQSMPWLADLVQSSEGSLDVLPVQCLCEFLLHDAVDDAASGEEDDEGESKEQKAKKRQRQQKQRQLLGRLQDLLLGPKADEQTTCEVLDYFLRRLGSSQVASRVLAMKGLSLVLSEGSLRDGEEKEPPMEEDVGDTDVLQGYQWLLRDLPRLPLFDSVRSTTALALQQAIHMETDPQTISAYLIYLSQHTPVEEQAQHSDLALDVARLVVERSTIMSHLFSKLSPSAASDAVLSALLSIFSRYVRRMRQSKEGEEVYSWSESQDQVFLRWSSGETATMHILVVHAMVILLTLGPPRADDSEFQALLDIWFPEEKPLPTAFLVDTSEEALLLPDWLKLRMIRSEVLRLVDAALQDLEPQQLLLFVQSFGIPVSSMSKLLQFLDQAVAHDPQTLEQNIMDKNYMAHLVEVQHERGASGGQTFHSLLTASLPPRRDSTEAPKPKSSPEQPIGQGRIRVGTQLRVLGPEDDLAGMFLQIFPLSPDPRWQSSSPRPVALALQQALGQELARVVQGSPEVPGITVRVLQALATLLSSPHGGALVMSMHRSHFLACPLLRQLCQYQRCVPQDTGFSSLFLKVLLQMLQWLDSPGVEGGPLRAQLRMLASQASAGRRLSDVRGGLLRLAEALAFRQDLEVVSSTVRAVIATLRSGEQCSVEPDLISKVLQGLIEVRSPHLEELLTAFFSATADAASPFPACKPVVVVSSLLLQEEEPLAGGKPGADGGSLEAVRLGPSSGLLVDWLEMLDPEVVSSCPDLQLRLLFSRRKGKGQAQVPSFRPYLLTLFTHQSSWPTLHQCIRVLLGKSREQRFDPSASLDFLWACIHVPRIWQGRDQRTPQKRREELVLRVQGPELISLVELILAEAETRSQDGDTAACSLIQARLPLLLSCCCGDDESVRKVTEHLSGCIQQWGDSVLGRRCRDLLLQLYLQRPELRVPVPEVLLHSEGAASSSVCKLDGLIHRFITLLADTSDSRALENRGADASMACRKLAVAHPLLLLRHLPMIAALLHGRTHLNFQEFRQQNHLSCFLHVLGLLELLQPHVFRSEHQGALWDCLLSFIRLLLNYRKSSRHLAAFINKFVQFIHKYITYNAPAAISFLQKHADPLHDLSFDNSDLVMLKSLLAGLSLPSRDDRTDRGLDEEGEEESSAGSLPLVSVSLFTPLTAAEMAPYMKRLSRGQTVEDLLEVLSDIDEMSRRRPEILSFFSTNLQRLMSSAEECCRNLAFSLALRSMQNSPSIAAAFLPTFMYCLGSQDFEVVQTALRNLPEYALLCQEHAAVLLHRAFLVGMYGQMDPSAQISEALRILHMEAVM
UniProt P23677, whole entry, looked up: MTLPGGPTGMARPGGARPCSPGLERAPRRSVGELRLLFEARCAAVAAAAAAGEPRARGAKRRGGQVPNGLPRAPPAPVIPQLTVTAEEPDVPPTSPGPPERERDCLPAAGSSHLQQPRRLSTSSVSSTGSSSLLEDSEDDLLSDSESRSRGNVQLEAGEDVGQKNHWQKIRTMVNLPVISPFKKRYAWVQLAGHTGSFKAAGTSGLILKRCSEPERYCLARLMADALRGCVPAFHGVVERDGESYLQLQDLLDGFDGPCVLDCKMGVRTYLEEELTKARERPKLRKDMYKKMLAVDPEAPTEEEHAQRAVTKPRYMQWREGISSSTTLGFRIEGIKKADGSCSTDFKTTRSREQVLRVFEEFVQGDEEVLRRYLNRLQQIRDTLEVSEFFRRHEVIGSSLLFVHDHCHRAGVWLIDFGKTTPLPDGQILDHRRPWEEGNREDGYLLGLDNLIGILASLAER
UniProt Q9NV88, whole entry, looked up: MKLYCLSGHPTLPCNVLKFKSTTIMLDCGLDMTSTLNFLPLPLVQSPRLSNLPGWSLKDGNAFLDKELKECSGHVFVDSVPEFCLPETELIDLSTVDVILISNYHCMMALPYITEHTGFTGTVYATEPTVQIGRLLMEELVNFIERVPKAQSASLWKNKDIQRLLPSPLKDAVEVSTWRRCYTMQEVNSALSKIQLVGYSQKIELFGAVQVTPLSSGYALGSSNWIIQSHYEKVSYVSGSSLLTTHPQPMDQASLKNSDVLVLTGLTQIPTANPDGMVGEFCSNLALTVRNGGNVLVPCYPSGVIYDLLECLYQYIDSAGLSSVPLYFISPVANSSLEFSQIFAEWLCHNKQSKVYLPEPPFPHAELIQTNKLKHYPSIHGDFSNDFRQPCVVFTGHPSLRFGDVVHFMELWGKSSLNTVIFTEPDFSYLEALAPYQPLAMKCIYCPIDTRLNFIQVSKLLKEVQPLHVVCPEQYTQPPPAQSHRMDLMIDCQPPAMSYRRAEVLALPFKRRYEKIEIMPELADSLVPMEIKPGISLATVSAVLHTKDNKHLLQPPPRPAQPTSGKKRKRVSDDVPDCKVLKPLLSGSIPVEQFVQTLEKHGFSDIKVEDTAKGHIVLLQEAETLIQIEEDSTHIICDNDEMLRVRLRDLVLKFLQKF

This is one part of the list.

Compound in this experiment: c1cn2cc(-c3ccc4cn[nH]c4c3)nc(Nc3ccc(N4CCOCC4)cc3)c2n1 [entospletinib]
Kind of experiment: log2 fold change, soluble protein after heating vs DMSO (PISA); higher = thermal stabilisation; K562 cells, 10 uM, 30 min; active = over 0.2 and 3.5 SD of the protein, either way, in both replicates (recomputed). The method, boiled down:
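K562 cells at 2×10^6 cells/mL were exposed to 10 μM compound for 30 min, then aliquots were heated for 3 min across 48°C-58°C, pooled, and extracted in PBS containing 0.5% NP-40 at 4°C. The supernatant after 21,000xg for 90 min was taken as soluble protein and measured by TMTpro 16plex LC-MS/MS with channel sums equalised. Thermal stability is reported relative to control samples, with values from duplicates. Fold changes are given on a log2 scale.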
In the case of IGHG1 (UniProt P01857), the log2 fold change is inactive: -0.037. In the case of ITIH1 (UniProt P19827), the log2 fold change is inactive: 0.021. For INPPL1 (UniProt O15357), the log2 fold change was inactive: 0.012. With IDH1 (UniProt O75874) the figure was inactive: -0.009.

Take ITM2A (UniProt O43736): the log2 fold change is inactive: 0.064.

With IDH3B (UniProt O43837), the log2 fold change was inactive: -0.014.

On to IMP3 (UniProt Q9NV31), for which the log2 fold change was inactive: -0.193.

On to IFI35 isoform 2 (UniProt P80217), for which the log2 fold change was inactive: 0.034. For IQGAP2 (UniProt Q13576), the log2 fold change is inactive: 0.058. In the case of IMMP2L (UniProt Q96T52), the log2 fold change is inactive: -0.041. With ITIH2 (UniProt P19823) the figure was inactive: 0.27; with INTS3 (UniProt Q68E01), inactive: -0.019. Turning to IL18 (UniProt Q14116), the log2 fold change was inactive: -0.061. IGSF3 (UniProt O75054): the log2 fold change is inactive: -0.102. IGF2BP1 (UniProt Q9NZI8): the log2 fold change was inactive: 0.26. In the case of ISG15 (UniProt P05161), the log2 fold change is inactive: -0.047.

Take INTS1 (UniProt Q8N201): the log2 fold change is inactive: 0.186.

For the target IQGAP1 (UniProt P46940), the log2 fold change is inactive: -0.029. With ISYNA1 (UniProt Q9NPH2) the figure was inactive: 0.036. With IMPAD1 (UniProt Q9NX62) the figure was inactive: -0.007; with ITPKA (UniProt P23677), inactive: 0.045; with INTS14 (UniProt Q96SY0), inactive: -0.023. In the case of INTS9 (UniProt Q9NV88), the log2 fold change was inactive: 0.05. As to IMPDH2 (UniProt P12268), the log2 fold change is inactive: -0.039.
